{"source": "patent US20250332141A1", "about": "“A PHARMACEUTICAL COMPOSITION COMPRISING AN INHIBITOR OF GLUTAMINE SYNTHETASE ENZYME TO COMBAT ARTEMISININ RESISTANCE IN MALARIA” (Institute of Life Sciences, priority 2022, published 2025)", "system": "ART-resistant PfCam3.I^R539T strain", "assay": "Ring-stage survival assay (RSA) with ART-resistant strain", "format": "cell-based, Plasmodium falciparum", "conditions": "700 nM exposure for 6 h; PfCam3.I^R539T cultures, after 72 h", "method": "PfCam3.I^R539T strain was maintained under standard conditions. When the parasitemia reached around 2% with predominant ring stages, the cultures were subjected to two rounds of tight synchronization within a span of 3 h in the previous cycle, followed by one additional synchronization in the subsequent cycle when they are in early rings. […] The medium change was carried out at 48 and 72 h, and after 96 h, the culture parasitemia was examined by Giemsa-stained smears and flow cytometry. For growth assessment by ^3H-hypoxanthine uptake, the label was added at 72 h and the cells were harvested at 96 h. The experiments were carried out independently in RPMI^-gln and RPMI^Pgln medium.", "note": "For at least one compound, name, drawing or mass did not settle the structure.", "data": [{"molecule": "C[C@H]1[C@@H](O)O[C@@H]2O[C@@]3(C)CC[C@H]4[C@H](C)CC[C@@H]1[C@@]24OO3", "note": "[DHA, dihydroartemisinin]", "values": [{"measurement": "viable parasites after exposure in RSA", "value": "resulted in viable parasites"}]}]}
